Experimental data: PMC7819943, “Rice protein-binding microarrays: a tool to detect cis-acting elements near promoter regions in rice”
The list shows a part of the results.

Target: T1, OsSMF1 (Oryza sativa, UniProt Q6ZLB0 1-436)
T1 sequence: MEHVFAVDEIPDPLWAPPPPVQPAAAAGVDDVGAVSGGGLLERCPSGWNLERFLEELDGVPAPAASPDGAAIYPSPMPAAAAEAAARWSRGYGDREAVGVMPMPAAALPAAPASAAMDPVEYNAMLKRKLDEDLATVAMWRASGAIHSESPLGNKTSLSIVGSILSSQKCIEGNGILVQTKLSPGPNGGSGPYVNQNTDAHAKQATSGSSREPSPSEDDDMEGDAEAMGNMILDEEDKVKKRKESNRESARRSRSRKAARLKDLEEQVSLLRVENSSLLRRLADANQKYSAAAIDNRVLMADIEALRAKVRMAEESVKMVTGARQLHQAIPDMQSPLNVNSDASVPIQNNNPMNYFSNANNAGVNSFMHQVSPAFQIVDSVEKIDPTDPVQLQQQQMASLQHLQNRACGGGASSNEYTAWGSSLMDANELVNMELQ
Assay: protein-binding microarray (RPBM); PBS, 2% BSA, 51.3 ng/ul salmon testes DNA, 50 uM zinc acetate, 200 nM TF, 25 C, 1 h; high values mean tight binding
Conditions: protein: recombinant; tags: N-terminal polyhistidine and DsRed monomer fusion (pET32a); chain copies: 2; label: CyDye5-dUTP incorporated in the synthesized complementary strand; 3' TTTTT single-stranded linker to array surface; dsDNA, one strand shown
Summary of the method: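 Using Ni–NTA, transcription factors fused N-terminally to polyhistidine and DsRed were purified after expression in E. coli BL21-CodonPlus. These were incubated at 200 nM with a blocked, double-stranded custom Agilent array for 1 h at 25 °C in a buffer containing 50 µM zinc acetate, and the array was washed. The binding signal is per-feature fluorescence intensity (arbitrary units) on an Axon 4000B scanner.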

Sequence	binding signal
TATATATACACGTCTATACCCACACGTTGATTAATGCGAGCGGAGTCACCTAGTGCAG	4960 fluorescence intensity (a.u.)
AGCAGAGCTCGCGTGTCGTCGTGTCCTCTCCTCGTTGATCCGGAGTCACCTAGTGCAG	4550 fluorescence intensity (a.u.)
GGACAACGAATTACCCTCACTCTCGTGTTCTCCGCTGAGTCGGAGTCACCTAGTGCAG	3460 fluorescence intensity (a.u.)
CAAATCATGTCATCAAAATAATTACTCCGATCGCTAACACCGGAGTCACCTAGTGCAG	3410 fluorescence intensity (a.u.)
TGTAAACTTTTATGATCATTTAGGAGCTCTGGACAGTAATCGGAGTCACCTAGTGCAG	18200 fluorescence intensity (a.u.)
TAACCTTTTGATCGGATGTTAAGCAAGAACCATTAACTAGCGGAGTCACCTAGTGCAG	3670 fluorescence intensity (a.u.)
AATGGCTTACTGGCAAAATGATGCATCCGATGACCTCATTCGGAGTCACCTAGTGCAG	3330 fluorescence intensity (a.u.)
TGGAGGTTATGAATCATACTCGGACGATAGTTAAGGGAGTCGGAGTCACCTAGTGCAG	49700 fluorescence intensity (a.u.)
GGTACTAAACTCCACATGCATGCCATCTCATGAGGTGGGCCGGAGTCACCTAGTGCAG	3350 fluorescence intensity (a.u.)
TAAATGGAAGAAACCACAAGTTTGTTCCACGCAATGCCCCCGGAGTCACCTAGTGCAG	5270 fluorescence intensity (a.u.)
TGGTTGTATTAGGTTAATAAGCCACGTCAGTGAAAAGCACCGGAGTCACCTAGTGCAG	16100 fluorescence intensity (a.u.)
AGCTGGGCCCCACACGTCATCCACCGCCGATCCTTTCGTTCGGAGTCACCTAGTGCAG	14500 fluorescence intensity (a.u.)
CTCAGCTCAGCTCACTCATCGGTAGCAGTGTGTACTCTAGCGGAGTCACCTAGTGCAG	3290 fluorescence intensity (a.u.)
TGTCATGCATCCATTAGAAGATGAGGCTATAGTTTTGTATCGGAGTCACCTAGTGCAG	26300 fluorescence intensity (a.u.)
TTGATAGTGTTCAGAGGCAAGTGTGACCGGAGGTGGAGATCGGAGTCACCTAGTGCAG	3550 fluorescence intensity (a.u.)
GAGACTTTCTCGCGTGTCATTCAAACTAAGGCAACCTAAGCGGAGTCACCTAGTGCAG	4070 fluorescence intensity (a.u.)
CGTGATTAGAATCCATCTCCGACCGACCGCACATACAAAGCGGAGTCACCTAGTGCAG	30700 fluorescence intensity (a.u.)
GAAATGAGGGGTGGGATTGGGATTGGGATTGGAAAATGAACGGAGTCACCTAGTGCAG	3830 fluorescence intensity (a.u.)
GGCGAAAATGCAGCACGTACGTGTATGCTAGCTTCAATTCCGGAGTCACCTAGTGCAG	3140 fluorescence intensity (a.u.)
GTGGTGATCATGCCACGATGGAGACGAGTGGCCGAGTCGTCGGAGTCACCTAGTGCAG	3670 fluorescence intensity (a.u.)
GGATGATGCTTGGTGGGTAGGAGGACTAGGAGTGCGGCGGCGGAGTCACCTAGTGCAG	3500 fluorescence intensity (a.u.)

Copied from the listing for reference:
Sequence	binding signal
TTGATAGTGTTCAGAGGCAAGTGTGACCGGAGGTGGAGATCGGAGTCACCTAGTGCAG	3550 fluorescence intensity (a.u.)
GAGACTTTCTCGCGTGTCATTCAAACTAAGGCAACCTAAGCGGAGTCACCTAGTGCAG	4070 fluorescence intensity (a.u.)
CGTGATTAGAATCCATCTCCGACCGACCGCACATACAAAGCGGAGTCACCTAGTGCAG	30700 fluorescence intensity (a.u.)

Next entries.

Sequence	binding signal
CTGTGTGACAATATATATCGTTAACTTAACTATTATTCAACGGAGTCACCTAGTGCAG	5300 fluorescence intensity (a.u.)
AGTCTTTAACATGTGGACTCAGGATTCTTATGTGGCAATTCGGAGTCACCTAGTGCAG	7440 fluorescence intensity (a.u.)
GTGGGGAAAGATAAGTGTGTGTGGGTGTGGCAATAAAGGTCGGAGTCACCTAGTGCAG	4030 fluorescence intensity (a.u.)
CGAGATCTCATCGATCAGTCACAGTGACGCAGTGAGCACTCGGAGTCACCTAGTGCAG	5790 fluorescence intensity (a.u.)
GGCGTCTTCCGCCACGACGACTGGATCGGCCGCCCCTTCGCGGAGTCACCTAGTGCAG	3350 fluorescence intensity (a.u.)
ATGTTTCTATGACATAAAGATCTAATGATAAATCATTTATCGGAGTCACCTAGTGCAG	4570 fluorescence intensity (a.u.)
GTTGAAGGTTCGCCGCGCCACGCATCAAACCATATCTGCACGGAGTCACCTAGTGCAG	4320 fluorescence intensity (a.u.)
GGAGGTGAGGATCAGAGGAGGCAGCCTCATCGTCATGCTTCGGAGTCACCTAGTGCAG	3410 fluorescence intensity (a.u.)
ACTGGTTTAGACGGTTACGTGTATGCCACTACGTACTTTTCGGAGTCACCTAGTGCAG	7360 fluorescence intensity (a.u.)
TCCTACCTCGATGTCGCGCGGCGGCCTCCTCTGACGCGGCCGGAGTCACCTAGTGCAG	5460 fluorescence intensity (a.u.)
GTGATGCAGGCAAGAAACCCGGGCACACACATGGCTATTCCGGAGTCACCTAGTGCAG	24600 fluorescence intensity (a.u.)
CTTATTAACCCTTTCAAGTTCCACGTTAAAATTAGAAGTTCGGAGTCACCTAGTGCAG	38000 fluorescence intensity (a.u.)
CAAAGCTATACCAACTCAATTACAACTAGCTGTCACACTTCGGAGTCACCTAGTGCAG	36800 fluorescence intensity (a.u.)
AAATTTTGGCTCGAGTGCGTGTTACACGTGAACGCGGCAGCGGAGTCACCTAGTGCAG	4030 fluorescence intensity (a.u.)
CACGATCCTGGGTCGCGAGCGCGCCATCGTCGTCAACCTGCGGAGTCACCTAGTGCAG	3490 fluorescence intensity (a.u.)
TACACTATTAATATCTGGTCCCACCTGTCATACACACACTCGGAGTCACCTAGTGCAG	3720 fluorescence intensity (a.u.)
CACTACTGACAATTCATCGATCGATCACTGCGTGCTACTCCGGAGTCACCTAGTGCAG	3420 fluorescence intensity (a.u.)
GCCCAACTCTAACAAAAGCCTATTTAACATTACCGGCCCACGGAGTCACCTAGTGCAG	3530 fluorescence intensity (a.u.)
TTCCTTGTGTGAGGTCAGCACTATGTCTTTTCCATGCTACCGGAGTCACCTAGTGCAG	5810 fluorescence intensity (a.u.)
ATGGCTAATTATGGACTAATTAGACTCAAAAGATTCGTTTCGGAGTCACCTAGTGCAG	22500 fluorescence intensity (a.u.)
GGTAGTACCATGAAGAGCAAAATTAACGCGTCCTCCTCCCCGGAGTCACCTAGTGCAG	3520 fluorescence intensity (a.u.)
